Values of other authors as cited in patent US20210283078A1, “Treatment of cholestatic pruritus” (CymaBay Therapeutics, Inc., priority 2017, published 2021).
At least one structure is not confirmed: it was looked up by name or label, or the drawing left a doubt.

Legend:
[1] = test system: patients with cholestatic pruritus; details: in vivo; cited from earlier work
[2] = test system: patients with cholestatic pruritus; details: cited from earlier work
[3] = test system: PBC patients with inadequate response to UDCA; details: 400 mg/day added to ursodiol, two years; cited from earlier work

CO[C@H]1/C=C/O[C@@]2(C)Oc3c(C)c(O)c4c(O)c(c(/C=N/N5CCN(C)CC5)c(O)c4c3C2=O)NC(=O)/C(C)=C\C=C\[C@H](C)[C@H](O)[C@@H](C)[C@@H](O)[C@@H](C)[C@H](OC(C)=O)[C@@H]1C [rifampicin]
serum ATX levels compared with placebo [1]: reduce serum ATX levels compared with placebo

C[C@H](CCC(=O)O)[C@H]1CC[C@H]2[C@@H]3[C@@H](O)C[C@@H]4C[C@H](O)CC[C@]4(C)[C@H]3CC[C@]12C [UDCA, ursodeoxycholic acid]
itch and serum liver tests ([2]; intrahepatic cholestasis of pregnancy): alleviate itch and improve serum liver tests | reduction of pruritus ([2]; other forms of cholestatic pruritus): not effective in reducing pruritus

CC(C)(Oc1ccc(CCNC(=O)c2ccc(Cl)cc2)cc1)C(=O)O [bezafibrate]
itch scores assessed by VAS [3]: decreased
